{
  "source": "patent US20110263014A1",
  "about": "“Cleavage of Nanog by Caspases Mediates the Differentiation of Embryonic Stem Cells” (BAYLOR COLLEGE OF MEDICINE, priority 2008, published 2011)",
  "system": "caspase activity in ES cells (R1, D3)",
  "test": "in vitro caspase activity assay of ES cells induced to differentiate",
  "type": "cell-based, mouse",
  "conditions": "RA 1 μM, R1 and D3 ES cells",
  "note": "At least one structure is not confirmed: it was looked up by name or label, or the drawing left a doubt.",
  "data": [
    {"smiles": "CC1=C(/C=C/C(C)=C/C=C/C(C)=C/C(=O)O)C(C)(C)CCC1", "note": "[RA, retinoic acid]", "values": [
      {"measurement": "caspase activity after stimulation", "result": "began to increase very shortly after"}
    ]}
  ]
}
